This is one part of the list. Small differences around the control level are noise.

By UniProt entry, the sequences of proteins in these tests, tags left out. Where a name states a change or a piece, a line headed by the entry shows the natural chain unless it says otherwise.
UniProt Q9NXR8, whole entry: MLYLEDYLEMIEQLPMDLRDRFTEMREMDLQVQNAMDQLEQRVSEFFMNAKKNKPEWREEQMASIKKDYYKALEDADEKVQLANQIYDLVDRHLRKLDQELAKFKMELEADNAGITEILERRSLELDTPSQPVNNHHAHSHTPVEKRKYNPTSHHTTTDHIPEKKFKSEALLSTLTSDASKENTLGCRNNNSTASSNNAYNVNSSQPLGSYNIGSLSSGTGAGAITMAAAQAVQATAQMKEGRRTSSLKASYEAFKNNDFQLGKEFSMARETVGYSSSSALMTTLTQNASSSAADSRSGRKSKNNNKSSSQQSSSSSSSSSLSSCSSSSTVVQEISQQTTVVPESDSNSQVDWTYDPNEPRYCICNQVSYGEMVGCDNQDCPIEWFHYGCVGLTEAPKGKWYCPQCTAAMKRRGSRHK
UniProt Q9NZN8, whole entry: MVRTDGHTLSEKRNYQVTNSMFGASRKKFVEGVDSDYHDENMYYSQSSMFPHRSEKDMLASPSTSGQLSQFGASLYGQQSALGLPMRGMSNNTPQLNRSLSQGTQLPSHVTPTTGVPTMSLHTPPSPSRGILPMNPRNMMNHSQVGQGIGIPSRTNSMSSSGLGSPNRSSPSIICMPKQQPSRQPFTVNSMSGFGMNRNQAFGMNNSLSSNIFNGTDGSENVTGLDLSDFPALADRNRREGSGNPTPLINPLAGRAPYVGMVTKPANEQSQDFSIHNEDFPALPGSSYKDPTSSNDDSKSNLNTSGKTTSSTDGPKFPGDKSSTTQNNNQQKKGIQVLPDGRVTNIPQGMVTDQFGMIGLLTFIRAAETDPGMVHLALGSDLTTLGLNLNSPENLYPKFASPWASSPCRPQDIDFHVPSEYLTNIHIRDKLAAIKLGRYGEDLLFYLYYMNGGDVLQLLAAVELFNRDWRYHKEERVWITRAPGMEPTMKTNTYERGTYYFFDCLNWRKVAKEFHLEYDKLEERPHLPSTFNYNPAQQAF
UniProt Q9NYM9: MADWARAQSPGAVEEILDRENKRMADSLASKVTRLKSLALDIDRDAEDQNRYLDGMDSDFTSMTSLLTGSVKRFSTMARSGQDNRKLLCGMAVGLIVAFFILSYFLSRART
UniProt Q9UBT6: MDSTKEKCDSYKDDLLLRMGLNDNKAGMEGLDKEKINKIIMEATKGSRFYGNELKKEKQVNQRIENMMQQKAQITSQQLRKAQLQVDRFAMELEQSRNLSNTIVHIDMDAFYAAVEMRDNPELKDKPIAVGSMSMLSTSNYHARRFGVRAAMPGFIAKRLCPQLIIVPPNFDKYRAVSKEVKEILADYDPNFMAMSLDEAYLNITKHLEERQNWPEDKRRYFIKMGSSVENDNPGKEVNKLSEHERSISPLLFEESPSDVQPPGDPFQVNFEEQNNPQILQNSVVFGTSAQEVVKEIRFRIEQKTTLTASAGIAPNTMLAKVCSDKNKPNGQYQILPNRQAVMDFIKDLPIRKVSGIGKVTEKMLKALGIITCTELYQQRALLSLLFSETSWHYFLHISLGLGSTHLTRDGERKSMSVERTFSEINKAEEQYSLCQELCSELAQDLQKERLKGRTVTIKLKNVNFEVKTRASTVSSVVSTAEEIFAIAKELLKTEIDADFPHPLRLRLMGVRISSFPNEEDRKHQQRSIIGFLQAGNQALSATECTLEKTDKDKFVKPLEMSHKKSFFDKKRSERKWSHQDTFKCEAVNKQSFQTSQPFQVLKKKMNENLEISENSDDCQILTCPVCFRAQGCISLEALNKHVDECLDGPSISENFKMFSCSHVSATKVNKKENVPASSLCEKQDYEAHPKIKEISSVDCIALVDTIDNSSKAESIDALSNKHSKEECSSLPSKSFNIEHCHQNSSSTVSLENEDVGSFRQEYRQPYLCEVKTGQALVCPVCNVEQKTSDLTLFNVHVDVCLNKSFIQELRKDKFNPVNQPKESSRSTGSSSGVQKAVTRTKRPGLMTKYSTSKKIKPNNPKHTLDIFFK
UniProt Q9P0S2: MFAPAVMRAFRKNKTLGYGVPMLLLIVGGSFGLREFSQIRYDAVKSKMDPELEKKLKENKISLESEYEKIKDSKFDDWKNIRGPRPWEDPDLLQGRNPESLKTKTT
UniProt Q9UFG5: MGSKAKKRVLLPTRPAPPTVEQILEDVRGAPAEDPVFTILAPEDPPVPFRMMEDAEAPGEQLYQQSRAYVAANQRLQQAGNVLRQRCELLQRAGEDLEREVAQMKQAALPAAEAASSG
UniProt Q9NYF8, whole entry: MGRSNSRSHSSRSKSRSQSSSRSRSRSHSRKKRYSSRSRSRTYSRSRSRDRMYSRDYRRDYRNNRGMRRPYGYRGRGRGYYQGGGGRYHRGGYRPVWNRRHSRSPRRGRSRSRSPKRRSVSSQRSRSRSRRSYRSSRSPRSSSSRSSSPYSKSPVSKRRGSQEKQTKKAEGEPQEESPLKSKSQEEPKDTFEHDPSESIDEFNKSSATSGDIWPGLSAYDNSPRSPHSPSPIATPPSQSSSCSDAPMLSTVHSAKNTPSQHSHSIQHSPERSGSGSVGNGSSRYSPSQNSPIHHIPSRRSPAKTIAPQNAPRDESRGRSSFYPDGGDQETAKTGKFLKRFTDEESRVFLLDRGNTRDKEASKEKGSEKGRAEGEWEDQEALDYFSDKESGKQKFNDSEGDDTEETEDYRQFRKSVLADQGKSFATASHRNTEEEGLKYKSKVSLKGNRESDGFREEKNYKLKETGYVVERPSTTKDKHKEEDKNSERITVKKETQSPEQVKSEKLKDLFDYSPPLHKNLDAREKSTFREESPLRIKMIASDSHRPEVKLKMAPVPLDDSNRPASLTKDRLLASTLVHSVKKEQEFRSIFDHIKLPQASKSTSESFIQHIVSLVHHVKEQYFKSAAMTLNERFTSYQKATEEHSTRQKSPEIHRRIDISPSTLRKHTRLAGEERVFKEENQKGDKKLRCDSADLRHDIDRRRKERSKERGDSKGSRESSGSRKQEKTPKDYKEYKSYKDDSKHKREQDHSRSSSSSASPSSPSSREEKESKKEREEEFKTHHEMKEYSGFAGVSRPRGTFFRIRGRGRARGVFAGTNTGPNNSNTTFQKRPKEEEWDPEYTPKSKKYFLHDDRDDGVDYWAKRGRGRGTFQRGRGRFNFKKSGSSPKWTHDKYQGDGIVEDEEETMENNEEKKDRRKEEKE
UniProt Q9P253: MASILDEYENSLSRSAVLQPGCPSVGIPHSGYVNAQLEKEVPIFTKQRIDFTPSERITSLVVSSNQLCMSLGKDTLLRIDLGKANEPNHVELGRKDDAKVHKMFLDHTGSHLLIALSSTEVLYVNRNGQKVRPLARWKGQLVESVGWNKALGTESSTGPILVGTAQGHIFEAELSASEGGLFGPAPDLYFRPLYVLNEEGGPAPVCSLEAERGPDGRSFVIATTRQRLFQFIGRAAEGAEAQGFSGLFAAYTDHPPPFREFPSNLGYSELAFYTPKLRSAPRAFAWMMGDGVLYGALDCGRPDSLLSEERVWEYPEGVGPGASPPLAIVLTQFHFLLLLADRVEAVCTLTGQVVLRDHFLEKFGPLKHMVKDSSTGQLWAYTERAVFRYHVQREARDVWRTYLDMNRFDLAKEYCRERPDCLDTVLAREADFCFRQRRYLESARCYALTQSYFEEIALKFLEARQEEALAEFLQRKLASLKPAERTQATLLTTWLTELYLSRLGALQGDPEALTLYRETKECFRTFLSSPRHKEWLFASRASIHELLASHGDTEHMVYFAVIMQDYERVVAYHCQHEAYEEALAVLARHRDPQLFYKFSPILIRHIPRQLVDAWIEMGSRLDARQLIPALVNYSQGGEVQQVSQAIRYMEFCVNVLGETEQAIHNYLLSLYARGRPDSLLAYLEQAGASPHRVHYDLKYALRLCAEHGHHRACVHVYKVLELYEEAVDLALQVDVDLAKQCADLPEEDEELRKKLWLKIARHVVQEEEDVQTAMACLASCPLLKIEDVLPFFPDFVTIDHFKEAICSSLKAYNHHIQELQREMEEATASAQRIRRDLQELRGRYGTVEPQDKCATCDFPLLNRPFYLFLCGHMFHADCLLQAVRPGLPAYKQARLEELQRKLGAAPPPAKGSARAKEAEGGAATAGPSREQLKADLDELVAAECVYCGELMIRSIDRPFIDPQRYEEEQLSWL
UniProt Q9NYW8: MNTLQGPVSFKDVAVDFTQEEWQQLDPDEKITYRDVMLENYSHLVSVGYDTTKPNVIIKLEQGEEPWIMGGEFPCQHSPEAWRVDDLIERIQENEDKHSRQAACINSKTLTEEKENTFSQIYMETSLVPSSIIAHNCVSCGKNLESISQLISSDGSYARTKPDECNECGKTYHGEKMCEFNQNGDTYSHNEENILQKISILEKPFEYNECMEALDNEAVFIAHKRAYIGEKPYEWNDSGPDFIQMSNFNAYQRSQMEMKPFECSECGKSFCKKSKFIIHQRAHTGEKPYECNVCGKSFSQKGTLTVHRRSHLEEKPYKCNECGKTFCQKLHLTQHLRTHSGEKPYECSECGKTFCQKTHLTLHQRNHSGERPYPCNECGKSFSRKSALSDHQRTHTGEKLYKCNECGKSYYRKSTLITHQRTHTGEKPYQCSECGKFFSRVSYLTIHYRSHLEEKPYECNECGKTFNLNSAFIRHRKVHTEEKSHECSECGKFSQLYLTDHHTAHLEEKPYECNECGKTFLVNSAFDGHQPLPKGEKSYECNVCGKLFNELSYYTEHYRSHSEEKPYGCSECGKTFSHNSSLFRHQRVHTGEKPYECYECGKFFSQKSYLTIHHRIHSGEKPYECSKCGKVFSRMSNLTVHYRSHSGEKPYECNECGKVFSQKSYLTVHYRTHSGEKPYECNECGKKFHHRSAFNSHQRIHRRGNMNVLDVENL
UniProt Q9UC07: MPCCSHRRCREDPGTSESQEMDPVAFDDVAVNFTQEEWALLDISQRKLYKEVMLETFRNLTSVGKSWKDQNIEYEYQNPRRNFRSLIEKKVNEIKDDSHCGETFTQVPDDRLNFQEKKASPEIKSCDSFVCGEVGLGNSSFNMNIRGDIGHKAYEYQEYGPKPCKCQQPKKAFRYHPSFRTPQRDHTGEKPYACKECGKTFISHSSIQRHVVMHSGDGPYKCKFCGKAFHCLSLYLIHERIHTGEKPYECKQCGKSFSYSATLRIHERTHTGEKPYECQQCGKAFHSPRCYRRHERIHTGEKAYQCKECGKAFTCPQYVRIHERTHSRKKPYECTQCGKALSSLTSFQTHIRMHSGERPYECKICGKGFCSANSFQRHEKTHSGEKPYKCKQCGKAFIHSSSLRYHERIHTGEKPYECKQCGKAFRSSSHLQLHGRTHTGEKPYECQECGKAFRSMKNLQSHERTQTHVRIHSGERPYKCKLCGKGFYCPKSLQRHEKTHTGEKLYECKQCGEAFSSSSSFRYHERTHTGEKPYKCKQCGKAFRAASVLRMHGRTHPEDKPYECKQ
UniProt Q9NYR9: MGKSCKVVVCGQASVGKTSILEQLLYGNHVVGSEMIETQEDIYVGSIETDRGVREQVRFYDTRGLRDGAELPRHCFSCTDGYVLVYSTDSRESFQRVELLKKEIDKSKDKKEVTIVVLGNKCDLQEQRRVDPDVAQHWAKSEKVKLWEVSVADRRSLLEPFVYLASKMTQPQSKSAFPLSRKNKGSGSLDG
UniProt Q9NXX6: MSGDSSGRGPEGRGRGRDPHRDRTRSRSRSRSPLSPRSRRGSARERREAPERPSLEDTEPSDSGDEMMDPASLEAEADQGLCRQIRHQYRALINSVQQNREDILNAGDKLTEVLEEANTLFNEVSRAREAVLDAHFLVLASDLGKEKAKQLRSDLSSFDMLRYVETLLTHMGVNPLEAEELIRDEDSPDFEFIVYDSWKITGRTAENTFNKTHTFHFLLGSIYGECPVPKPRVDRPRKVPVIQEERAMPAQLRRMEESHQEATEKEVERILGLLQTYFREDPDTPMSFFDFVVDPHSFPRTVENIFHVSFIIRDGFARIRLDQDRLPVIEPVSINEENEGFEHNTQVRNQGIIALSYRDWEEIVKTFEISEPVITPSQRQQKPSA
UniProt Q9NYL9: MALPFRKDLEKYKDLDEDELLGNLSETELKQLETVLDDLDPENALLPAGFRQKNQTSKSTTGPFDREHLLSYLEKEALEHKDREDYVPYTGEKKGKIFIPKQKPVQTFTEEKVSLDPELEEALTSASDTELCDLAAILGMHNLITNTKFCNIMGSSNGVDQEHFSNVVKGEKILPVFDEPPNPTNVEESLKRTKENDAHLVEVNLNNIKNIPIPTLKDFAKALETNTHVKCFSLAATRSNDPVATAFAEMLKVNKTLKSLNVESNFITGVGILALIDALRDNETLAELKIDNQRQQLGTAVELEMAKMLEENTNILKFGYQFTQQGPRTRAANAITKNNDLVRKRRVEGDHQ
UniProt Q9UET6: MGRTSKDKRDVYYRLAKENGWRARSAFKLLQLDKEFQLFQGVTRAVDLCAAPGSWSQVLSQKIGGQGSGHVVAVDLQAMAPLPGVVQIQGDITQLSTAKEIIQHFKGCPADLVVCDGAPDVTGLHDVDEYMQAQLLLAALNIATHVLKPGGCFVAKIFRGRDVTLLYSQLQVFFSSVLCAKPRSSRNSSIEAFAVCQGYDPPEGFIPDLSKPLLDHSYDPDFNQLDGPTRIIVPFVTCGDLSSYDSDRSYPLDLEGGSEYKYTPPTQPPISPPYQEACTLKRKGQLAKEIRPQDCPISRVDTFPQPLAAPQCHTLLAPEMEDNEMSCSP

Compound in the test: Cc1nc(Nc2ncc(C(=O)Nc3c(C)cccc3Cl)s2)cc(N2CCN(CCO)CC2)n1 [dasatinib]
As to the kind of experiment: log2 fold change of tryptic peptide abundance, ligand vs vehicle (limited proteolysis) (log2 ratio); higher = more trypsin-susceptible (destabilized). To be noted: ligand concentration: 5 uM; sample: K562 cleared lysate.
“CHCHD3 (peptide sequence: VAEELALEQAK, peptide start residue: 66) (UniProt Q9NX63)”: the log2 fold change was determined as 0.394.

With “ING3 (peptide sequence: VSEFFMNAK, peptide start residue: 43) (UniProt Q9NXR8)”, the log2 fold change was determined as 0.275. Under “MED11 (peptide sequence: KDCQMALK, peptide start residue: 88) (UniProt Q9P086)” stands -0.302.

With “CNOT2 (peptide sequence: REGSGNPTPLINPLAGR, peptide start residue: 239) (UniProt Q9NZN8)”, the log2 fold change was -0.175.

As for “OCIAD1 (peptide sequence: NITYEELR, peptide start residue: 196) (UniProt Q9NX40)”, the log2 fold change came out at 0.0586. Under “BET1L (peptide sequence: AQSPGAVEEILDRENKR, peptide start residue: 7) (UniProt Q9NYM9)” stands -0.202; under “POLK (peptide sequence: ENVPASSLCEKQDYEAHPK, peptide start residue: 673) (UniProt Q9UBT6)”, 0.979; under “TERF2IP (peptide sequence: DDGSSMSFYVRPSPAKR, peptide start residue: 24) (UniProt Q9NYB0)”, 0.475.

As for “COX16 (peptide sequence: GPRPWEDPDLLQGRNPESLK, peptide start residue: 83) (UniProt Q9P0S2)”, the log2 fold change was -0.539. Under “C19orf25 (peptide sequence: AGEDLEREVAQMK, peptide start residue: 93) (UniProt Q9UFG5)” stands -0.385; under “BCLAF1 (peptide sequence: SIFDHIKLPQASK, peptide start residue: 587) (UniProt Q9NYF8)”, -0.291. With “VPS18 (peptide sequence: ACVHVYK, peptide start residue: 712) (UniProt Q9P253)”, the log2 fold change was determined as 0.277. Under “UniProt Q9NYW8 (peptide sequence: KVHTEEK, peptide start residue: 477)” stands -0.0717; under “UniProt Q9UC07 (peptide sequence: DHTGEKPYACK, peptide start residue: 187)”, 1.44. “NKIRAS2 (peptide sequence: VKLWEVSVADRR, peptide start residue: 144) (UniProt Q9NYR9)”: the log2 fold change is -0.116.

In the case of “IGF2BP1 (peptide sequence: TADEVPLK, peptide start residue: 273) (UniProt Q9NZI8)”, the log2 fold change worked out at 0.0932. Consider “UBAP1 (peptide sequence: VLSPPHIK, peptide start residue: 144) (UniProt Q9NZ09)”, for which the log2 fold change amounted to 0.567. Under “NHP2 (peptide sequence: IKADPDGPEAQAEACSGER, peptide start residue: 4) (UniProt Q9NX24)” stands 0.0354. Consider “RNF7 (peptide sequence: VQVMDACLR, peptide start residue: 55) (UniProt Q9UBF6)”, for which the log2 fold change was -0.0991. Under “NSMCE4A (peptide sequence: SGDSSGRGPEGR, peptide start residue: 2) (UniProt Q9NXX6)” stands -0.526. For the target “SIPA1L2 (peptide sequence: VINAENAAHKSEK, peptide start residue: 788) (UniProt Q9P2F8)”, the log2 fold change is -0.419.

Take “UniProt Q9UBS9 (peptide sequence: EGPINAESLGK, peptide start residue: 63)”: the log2 fold change is 0.0859. Under “UniProt Q9P2Q2 (peptide sequence: NDYDKSPIKPK, peptide start residue: 599)” stands -0.7. Under “UniProt Q9NX38 (peptide sequence: RINATTATS, peptide start residue: 173)” stands 0.436. Under “UniProt Q9UBF8 (peptide sequence: RLSEQLAHTPTAFK, peptide start residue: 509)” stands -0.472; under “TMOD3 (peptide sequence: STTGPFDREHLLSYLEK, peptide start residue: 59) (UniProt Q9NYL9)”, -0.0958.

On to “FTSJ1 (peptide sequence: EIRPQDCPISR, peptide start residue: 289) (UniProt Q9UET6)”, for which the log2 fold change amounted to 0.00378. For “DAXX (peptide sequence: KQTGSGPLGNSYVER, peptide start residue: 637) (UniProt Q9UER7)”, the log2 fold change is -0.13.

Source of the values: the supplement of paper PMC12819154, “High-throughput peptide-centric local stability assay extends protein–ligand identification to membrane proteins, tissues and bacteria” (Nature Structural & Molecular Biology, 2025).
